Experimental data reported in the supplement of paper PMC12823440, “Inhibitors supercharge kinase turnover through native proteolytic circuits” (Nature, 2025).
Where a name gives a salt, the structure may show the parent alone. Some of the results follow. The calls rarely recur for the same compound in another form.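 In K562 cells expressing nanoluciferase-fused kinases, luminescence was recorded at 4 h intervals between 2 and 18 h, normalized as percent of control with DMSO at 100% and a positive control at 0%. A significant (2 sigma) signal drop marks a time point as decreased. The authors' rule for a hit is not shown and takes in more than the number of time points.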

By UniProt entry, the sequences of proteins in these tests, tags left out. Where a name states a change or a piece, a line headed by the entry shows the natural chain unless it says otherwise.
UniProt P48729: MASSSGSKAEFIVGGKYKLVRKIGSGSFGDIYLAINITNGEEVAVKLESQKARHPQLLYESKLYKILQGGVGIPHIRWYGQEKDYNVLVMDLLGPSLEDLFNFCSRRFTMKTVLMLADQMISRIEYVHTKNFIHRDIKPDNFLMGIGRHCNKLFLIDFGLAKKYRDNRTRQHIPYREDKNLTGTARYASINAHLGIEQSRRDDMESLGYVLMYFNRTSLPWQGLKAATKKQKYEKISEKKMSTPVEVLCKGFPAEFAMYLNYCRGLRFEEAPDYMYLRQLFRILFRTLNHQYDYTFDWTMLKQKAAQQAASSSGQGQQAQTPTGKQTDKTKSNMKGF
UniProt P48730: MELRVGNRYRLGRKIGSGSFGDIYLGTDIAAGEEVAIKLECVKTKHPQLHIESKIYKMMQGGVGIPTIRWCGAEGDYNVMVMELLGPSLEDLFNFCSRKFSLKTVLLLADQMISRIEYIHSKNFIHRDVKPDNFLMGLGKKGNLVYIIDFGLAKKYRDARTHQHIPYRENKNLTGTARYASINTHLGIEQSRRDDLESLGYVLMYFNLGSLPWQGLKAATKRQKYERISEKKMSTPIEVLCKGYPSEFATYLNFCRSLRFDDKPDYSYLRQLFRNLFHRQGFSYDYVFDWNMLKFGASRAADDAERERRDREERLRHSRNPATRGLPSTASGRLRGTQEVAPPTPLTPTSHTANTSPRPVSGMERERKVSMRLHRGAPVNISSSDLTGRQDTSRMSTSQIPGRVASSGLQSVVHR
UniProt Q08345: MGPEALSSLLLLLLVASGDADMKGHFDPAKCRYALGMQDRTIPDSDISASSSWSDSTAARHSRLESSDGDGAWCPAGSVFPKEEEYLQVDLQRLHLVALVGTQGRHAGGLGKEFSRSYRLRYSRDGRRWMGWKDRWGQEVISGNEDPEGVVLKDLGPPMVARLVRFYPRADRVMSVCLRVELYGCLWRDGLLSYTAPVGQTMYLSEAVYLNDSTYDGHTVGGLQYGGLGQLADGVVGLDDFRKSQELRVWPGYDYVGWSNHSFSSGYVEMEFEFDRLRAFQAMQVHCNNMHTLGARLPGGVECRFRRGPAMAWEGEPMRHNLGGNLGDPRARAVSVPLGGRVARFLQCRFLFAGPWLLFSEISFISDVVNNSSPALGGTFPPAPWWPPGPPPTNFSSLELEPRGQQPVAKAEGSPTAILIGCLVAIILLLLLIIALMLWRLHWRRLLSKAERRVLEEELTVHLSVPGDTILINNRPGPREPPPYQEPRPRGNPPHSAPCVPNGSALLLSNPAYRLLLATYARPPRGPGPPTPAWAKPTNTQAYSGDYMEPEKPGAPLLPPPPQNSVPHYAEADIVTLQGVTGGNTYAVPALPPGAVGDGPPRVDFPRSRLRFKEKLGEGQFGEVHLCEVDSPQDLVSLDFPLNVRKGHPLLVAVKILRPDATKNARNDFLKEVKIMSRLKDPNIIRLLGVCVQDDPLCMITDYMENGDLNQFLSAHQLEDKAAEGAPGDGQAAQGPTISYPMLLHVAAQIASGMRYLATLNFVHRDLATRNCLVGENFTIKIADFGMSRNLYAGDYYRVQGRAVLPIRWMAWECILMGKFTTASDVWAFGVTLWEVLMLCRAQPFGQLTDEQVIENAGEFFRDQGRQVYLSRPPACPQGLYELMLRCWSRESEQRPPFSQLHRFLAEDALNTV
UniProt Q9Y463, whole entry, looked up: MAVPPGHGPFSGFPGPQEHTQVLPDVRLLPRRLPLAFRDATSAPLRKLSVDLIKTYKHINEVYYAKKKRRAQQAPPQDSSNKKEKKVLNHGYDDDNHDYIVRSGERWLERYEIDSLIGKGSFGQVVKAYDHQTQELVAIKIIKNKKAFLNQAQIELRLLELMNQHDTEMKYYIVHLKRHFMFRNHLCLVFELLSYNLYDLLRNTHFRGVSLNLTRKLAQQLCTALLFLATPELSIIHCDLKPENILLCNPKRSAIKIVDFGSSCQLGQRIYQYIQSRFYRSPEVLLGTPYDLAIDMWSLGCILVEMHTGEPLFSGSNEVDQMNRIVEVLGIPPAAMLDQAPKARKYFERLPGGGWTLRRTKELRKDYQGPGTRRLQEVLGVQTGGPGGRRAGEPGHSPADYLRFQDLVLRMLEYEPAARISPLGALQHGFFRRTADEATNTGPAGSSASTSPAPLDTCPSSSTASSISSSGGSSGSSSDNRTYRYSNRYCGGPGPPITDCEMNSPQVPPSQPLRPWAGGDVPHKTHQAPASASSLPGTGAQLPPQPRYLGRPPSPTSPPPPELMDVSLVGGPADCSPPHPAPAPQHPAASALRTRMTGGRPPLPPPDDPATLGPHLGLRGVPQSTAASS
UniProt Q92630: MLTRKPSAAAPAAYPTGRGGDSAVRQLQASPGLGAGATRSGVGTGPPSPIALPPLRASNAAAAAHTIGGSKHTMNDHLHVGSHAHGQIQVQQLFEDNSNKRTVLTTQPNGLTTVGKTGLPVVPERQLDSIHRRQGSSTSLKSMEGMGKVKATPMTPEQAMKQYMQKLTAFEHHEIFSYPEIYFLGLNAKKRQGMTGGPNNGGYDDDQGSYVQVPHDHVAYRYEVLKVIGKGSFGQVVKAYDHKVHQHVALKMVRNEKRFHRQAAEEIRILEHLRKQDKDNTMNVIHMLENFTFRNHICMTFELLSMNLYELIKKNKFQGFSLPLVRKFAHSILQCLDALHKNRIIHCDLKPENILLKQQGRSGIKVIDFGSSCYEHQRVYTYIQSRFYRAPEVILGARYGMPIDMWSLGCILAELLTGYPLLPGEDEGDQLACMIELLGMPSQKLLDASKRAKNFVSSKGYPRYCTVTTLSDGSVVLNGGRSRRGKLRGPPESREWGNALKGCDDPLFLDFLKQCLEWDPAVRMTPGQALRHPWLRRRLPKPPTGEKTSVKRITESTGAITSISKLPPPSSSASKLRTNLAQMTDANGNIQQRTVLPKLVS

What was measured:
Experiment in all cases: number of time points (of 5) at which kinase-Nluc abundance scored as decreased, DMSO-normalised (count); higher = more persistent destabilization
Settings in all cases: K562; 2-18 h
CSNK1A1 = CSNK1A1 (UniProt P48729)
CSNK1D = CSNK1D (UniProt P48730)
DDR1 = DDR1 (UniProt Q08345)
DYRK1B = DYRK1B (UniProt Q9Y463)
DYRK2 = DYRK2 (UniProt Q92630)
EGFR = EGFR (UniProt P00533)
EGFR_G719S = EGFR_G719S (UniProt P00533)
EGFR_G719S_T790M = EGFR_G719S_T790M (UniProt P00533)
EGFR_L718V = EGFR_L718V (UniProt P00533)
EGFR_L858R = EGFR_L858R (UniProt P00533)

| Structure (SMILES) | number of time points (CSNK1A1) | number of time points (CSNK1D) | number of time points (DDR1) | number of time points (DYRK1B) | number of time points (DYRK2) | number of time points (EGFR) | number of time points (EGFR_G719S) | number of time points (EGFR_G719S_T790M) | number of time points (EGFR_L718V) | number of time points (EGFR_L858R) |
| --- | --- | --- | --- | --- | --- | --- | --- | --- | --- | --- |
| Cc1ccc2cc(-c3c(C)ccc(C(=O)c4c(-c5ccccc5)n(C)n(-c5ccccc5)c4=O)c3N)ccc2n1 (2.5 µM) | 0 | 0 | 0 | 0 | 0 | 0 | 0 | 0 | 0 | 0 |
| C[C@H](c1ccnc(Nc2nc3ccc(-c4cc(N(C)C)ncn4)cc3[nH]2)c1)N1CCN(C(=O)CC(F)(F)F)CC1 (2.5 µM) | 0 | 0 | 0 | 0 | 0 | 0 | 0 | 0 | 0 | 0 |
| C[C@@]1(c2ncncc2F)NC(=O)c2cc(-c3cn[nH]c3)ccc21 (10 µM) | 0 | 0 | 0 | 0 | 0 | 0 | 0 | 0 | 0 | 0 |
| CC(=O)NC1CC(n2cnc(NC(=O)Cc3ccc4ccccc4c3)c2)C1 (stereo not given) (10 µM) | 0 | 0 | 0 | 0 | 0 | 0 | 0 | 0 | 0 | 0 |
| COc1ccc(OC)c(C2C(C#N)=C(N)Oc3n[nH]c(-c4ccc5ccccc5c4)c32)c1 (stereo not given) (10 µM) | 0 | 0 | 0 | 0 | 0 | 0 | 0 | 0 | 0 | 0 |
| O=C(N/N=C/c1coc2ccccc2c1=O)c1cccnc1 (10 µM) | 0 | 0 | 0 | 0 | 0 | 0 | 0 | 0 | 0 | 0 |
| N#CCC1CCN(c2nc(Nc3ccc(N4CCC(O)CC4)cc3)c3c(=O)[nH]ncc3n2)CC1 [Gusacitinib] (10 µM) | 0 | 0 | 0 | 0 | 0 | 0 | 0 | 0 | 0 | 0 |
| COc1cc2c(cc1OC)CN(S(=O)(=O)c1ccc(OC)c(N3CCN(C(=O)c4ccc(F)cc4C(F)(F)F)CC3)c1)CC2 (10 µM) | 0 | 0 | 0 | 0 | 0 | 0 | 0 | 0 | 0 | 0 |
| O=C([O-])c1cc2ccccc2c(Cc2c(O)c(C(=O)[O-])cc3ccccc23)c1O.[Na+].[Na+] [Pamoic acid (disodium)] (10 µM) | 0 | 0 | 0 | 0 | 0 | 0 | 0 | 0 | 0 | 0 |
| Cc1cc(Nc2ncnc3ccc(NC4=NC(C)(C)CO4)cc23)ccc1Oc1ccn2ncnc2c1 [Tucatinib] (2.5 µM) | 0 | 0 | 0 | 0 | 0 | 0 | 0 | 0 | 0 | 0 |
| FC(F)c1nc2ccccc2n1-c1nc(N2CCOCC2)nc(N2CCOCC2)n1 (2 µM) | 0 | 0 | 4 | 0 | 0 | 0 | 0 | 0 | 0 | 0 |
| Cc1cc2ncc(-c3ccc(O)c(O)c3)nc2cc1C [Tyrphostin AG1433] (10 µM) | 0 | 0 | 0 | 0 | 0 | 0 | 0 | 0 | 0 | 0 |
| N#Cc1c(C2CCNCC2)cc(-c2c(O)cccc2OCC2CC2)nc1N [ACHP (Hydrochloride)] (10 µM) | 0 | 0 | 0 | 0 | 0 | 0 | 0 | 0 | 0 | 0 |
| Nc1ncnc2c1c(-c1ccc(Oc3ccccc3)cc1)nn2C1CCCC1 (2.5 µM) | 0 | 0 | 0 | 0 | 3 | 0 | 0 | 0 | 0 | 0 |
| NCCNS(=O)(=O)c1cccc2c(Cl)cccc12 [A-3 (hydrochloride)] (10 µM) | 0 | 0 | 0 | 0 | 0 | 0 | 0 | 0 | 0 | 0 |
| Cn1cnc(Cn2ccc3ccc(CNCc4[nH]c5ccccc5c4[C@H]4NC(=O)c5ccc(O)cc54)cc32)c1 (10 µM) | 0 | 0 | 0 | 0 | 0 | 0 | 0 | 0 | 0 | 0 |
| Oc1cc2c(cc1O)C(Cc1cccc3ccccc13)NCC2 (stereo not given) (10 µM) | 0 | 0 | 0 | 0 | 0 | 0 | 0 | 0 | 0 | 0 |
| Cc1ccc(C(=O)Nc2ccc(Oc3cc4cnn(C)c4cc3-c3cn[nH]c3)c(F)c2)c(=O)n1-c1ccc(F)cc1 [Merestinib dihydrochloride] (2.5 µM) | 0 | 0 | 0 | 0 | 0 | 0 | 0 | 0 | 0 | 0 |
| Nc1nc(F)nc2c1ncn2[C@@H]1O[C@H](CO)[C@@H](O)[C@@H]1O [Fludarabine] (10 µM) | 0 | 0 | 0 | 0 | 0 | 0 | 0 | 0 | 0 | 0 |
| COc1cc2ncnc(Nc3ccc(Cl)cc3F)c2cc1OC (10 µM) | 0 | 0 | 0 | 0 | 0 | 0 | 0 | 0 | 0 | 0 |

Reprinted at random: two records from the list, in no set order.

| Structure (SMILES) | number of time points (CSNK1A1) | number of time points (CSNK1D) | number of time points (DDR1) | number of time points (DYRK1B) | number of time points (DYRK2) | number of time points (EGFR) | number of time points (EGFR_G719S) | number of time points (EGFR_G719S_T790M) | number of time points (EGFR_L718V) | number of time points (EGFR_L858R) |
| --- | --- | --- | --- | --- | --- | --- | --- | --- | --- | --- |
| O=C(N/N=C/c1coc2ccccc2c1=O)c1cccnc1 (10 µM) | 0 | 0 | 0 | 0 | 0 | 0 | 0 | 0 | 0 | 0 |
| N#CCC1CCN(c2nc(Nc3ccc(N4CCC(O)CC4)cc3)c3c(=O)[nH]ncc3n2)CC1 [Gusacitinib] (10 µM) | 0 | 0 | 0 | 0 | 0 | 0 | 0 | 0 | 0 | 0 |
